Measurements as given in US5688913A (Cytel Corporation, priority 1995, dated 1997).

Experiment: general procedure: Fmoc solid-phase peptide synthesis; Rink amide MBHA; DIC/HOBt
Settings: whole synthesis, scale 5 mmoles

Question: Which isolated mass does the source give for “PEPTIDE1{[caph9ccb84].L.D.F.[dP].[am]}$$$$V2.0” here?
Answer: 1.8 g

Some peptides are written in HELM: one residue between dots, names in brackets for other building blocks, links after the first $.
